Experimental findings from paper PMC7613766 are described below.

Protein sequences, listed by entry. Tags and fused reporters are not part of them.
UniProt Q9UKL0: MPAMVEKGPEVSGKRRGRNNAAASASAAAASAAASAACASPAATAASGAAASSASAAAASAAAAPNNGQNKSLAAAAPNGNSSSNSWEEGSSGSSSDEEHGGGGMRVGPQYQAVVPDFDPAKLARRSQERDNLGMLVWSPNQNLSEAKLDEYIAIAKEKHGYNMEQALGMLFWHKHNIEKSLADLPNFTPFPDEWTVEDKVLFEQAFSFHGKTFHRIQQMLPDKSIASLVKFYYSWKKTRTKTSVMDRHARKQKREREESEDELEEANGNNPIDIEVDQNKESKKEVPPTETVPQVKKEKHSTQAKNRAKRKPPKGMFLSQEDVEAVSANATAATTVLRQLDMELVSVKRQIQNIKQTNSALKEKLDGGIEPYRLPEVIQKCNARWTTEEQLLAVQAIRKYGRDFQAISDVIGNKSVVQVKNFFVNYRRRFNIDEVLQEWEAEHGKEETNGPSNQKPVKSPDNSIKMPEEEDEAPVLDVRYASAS

T1: HMG20B (human (endogenous in THP1)) (UniProt Q9P0W2)
T1 sequence: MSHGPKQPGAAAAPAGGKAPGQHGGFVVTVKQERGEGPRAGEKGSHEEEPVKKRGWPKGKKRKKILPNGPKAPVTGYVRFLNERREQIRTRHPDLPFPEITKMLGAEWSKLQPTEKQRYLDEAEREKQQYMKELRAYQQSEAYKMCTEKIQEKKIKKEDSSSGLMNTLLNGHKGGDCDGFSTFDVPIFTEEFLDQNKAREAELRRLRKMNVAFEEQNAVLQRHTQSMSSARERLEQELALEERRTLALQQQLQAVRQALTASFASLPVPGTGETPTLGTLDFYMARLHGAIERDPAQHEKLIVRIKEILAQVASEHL

B1: GSE1 (protein, UniProt Q14687 1-1217)
chain: MKGMSHEPKSPSLGMLSTATRTTATVNPLTPSPLNGALVPSGSPATSSALSAQAAPSSSFAAALRKLAKQAEEPRGSSLSSESSPVSSPATNHSSPASTPKRVPMGPIIVPPGGHSVPSTPPVVTIAPTKTVNGVWRSESRQDAGSRSSSGGRERLIVEPPLPQEKAGGPAIPSHLLSTPYPFGLSPSSVVQDSRFPPLNLQRPVHHVVPPSTVTEDYLRSFRPYHTTDDLRMSSLPPLGLDPATAAAYYHPSYLAPHPFPHPAFRMDDSYCLSALRSPFYPIPTPGSLPPLHPSAMHLHLSGVRYPPELSHSSLAALHSERMSGLSAERLQMDEELRREREREREREREREADREREKEREREREKEREQEKEREREKERERELERQREQRAREKELLAAKALEPSFLPVAELHGLRGHATEERGKPSEQLTPTRAEKLKDAGLQAPKPVQHPLHPVPTPHHTVPSLISNHGIFSLPSSSAATALLIQRTNEEEKWLARQRRLRQEKEDRQSQVSEFRQQVLEQHLDMGRPPVPAEAEHRPESTTRPGPNRHEPGGRDPPQHFGGPPPLISPKPQLHAAPTALWNPVSLMDNTLETRRAESHSLHSHPAAFEPSRQAAVPLVKVERVFCPEKAEEGPRKREPAPLDKYQPPPPPPREGGSLEHQPFLPGPGPFLAELEKSTQTILGQQRASLPQAATFGELSGPLKPGSPYRPPVPRAPDPAYIYDEFLQQRRRLVSKLDLEERRRREAQEKGYYYDLDDSYDESDEEEVRAHLRCVAEQPPLKLDTSSEKLEFLQLFGLTTQQQKEELVAQKRRKRRRMLRERSPSPPTIQSKRQTPSPRLALSTRYSPDEMNNSPNFEEKKKFLTIFNLTHISAEKRKDKERLVEMLRAMKQKALSAAVADSLTNSPRDSPAVSLSEPATQQASLDVEKPVGVAASLSDIPKAAEPGKLEQVRPQELSRVQELAPASGEKARLSEAPGGKKSLSMLHYIRGAAPKDIPVPLSHSTNGKSKPWEPFVAEEFAHQFHESVLQSTQKALQKHKGSVAVLSAEQNHKVDTSVHYNIPELQSSSRAPPPQHNGQQEPPTARKGPPTQELDRDSEEEEEEDDEDGEDEEEVPKRKWQGIEAVFEAYQEHIEEQNLERQVLQTQCRRLEARHYSLSLTAEQLSHSVAELRSQKQKMVSERERLQAELDHLRKCLALPAMHWPRGYLKGYPR

These are yes or no findings as the source states them, for the method shown. In cells and extracts the contact can be indirect. A yes stands for co-enrichment or nearness to the bait. Other partners may have been found.

The experiment has as its target T1, HMG20B (human (endogenous in THP1)). Briefly: affinity purification with mass spectrometry; HMG20B MS-IP from nuclear-enriched lysates of THP1 AML cells exposed to OG86 250 nM or DMSO for 48 h.
As for RCOR1 (from UniProt Q9UKL0 1-485), the binding result is “binds”.

For the molecule RCOR3 (from UniProt Q9P2K3 1-495), the binding result is reported as “binds”.

Turning to B1, the binding result is on record as “binds”.
